Measurements as given in the supplement of paper PMC4604168 (melanoma cell lines).
This is one part of the list. Repeats are few or missing, and single values can be far off.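 Cells were imaged in 1,536-well plates, and nuclei stained with an antibody against cleaved PARP were counted against all DNA-stained nuclei to give the apoptosis fraction. Screening doses were chosen to leave most cells alive, and resting and induced cleaved-PARP levels differ strongly between cell lines.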

Experiments:
Assay in all cases: cleaved PARP positive nuclei fraction relative to DMSO control; melanoma cells; higher = more apoptosis
Conditions in all cases: library dose: low library concentration; 72 h
501Mel = test system: 501Mel
A101D = test system: A101D
A2058 = test system: A2058
A375 = test system: A375
C32 = test system: C32
CBRC008 = test system: CBRC008 (line from a melanoma biopsy)
CBRC014 = test system: CBRC014 (line from a melanoma biopsy)
CBRC016 = test system: CBRC016 (line from a melanoma biopsy)
CBRC017 = test system: CBRC017 (line from a melanoma biopsy)
CBRC034 = test system: CBRC034 (line from a melanoma biopsy)
COLO792 = test system: COLO792
COLO800 = test system: COLO800
COLO829 = test system: COLO829
G361 = test system: G361
IPC-298 = test system: IPC-298
IST-MEL1 = test system: IST-MEL1
LB2518-MEL = test system: LB2518-MEL
LOXIMVI = test system: LOXIMVI
MEL-HO = test system: MEL-HO

Row | SMILES | cleaved PARP positive nuclei fraction (501Mel) | cleaved PARP positive nuclei fraction (A101D) | cleaved PARP positive nuclei fraction (A2058) | cleaved PARP positive nuclei fraction (A375) | cleaved PARP positive nuclei fraction (C32) | cleaved PARP positive nuclei fraction (CBRC008) | cleaved PARP positive nuclei fraction (CBRC014) | cleaved PARP positive nuclei fraction (CBRC016) | cleaved PARP positive nuclei fraction (CBRC017) | cleaved PARP positive nuclei fraction (CBRC034) | cleaved PARP positive nuclei fraction (COLO792) | cleaved PARP positive nuclei fraction (COLO800) | cleaved PARP positive nuclei fraction (COLO829) | cleaved PARP positive nuclei fraction (G361) | cleaved PARP positive nuclei fraction (IPC-298) | cleaved PARP positive nuclei fraction (IST-MEL1) | cleaved PARP positive nuclei fraction (LB2518-MEL) | cleaved PARP positive nuclei fraction (LOXIMVI) | cleaved PARP positive nuclei fraction (MEL-HO)
1 | Cc1cc(Nc2cc(N3CCN(C)CC3)nc(/C=C/c3ccccc3)n2)n[nH]1 + O=C(O)c1ccc2c(c1)nc(Nc1cccc(Cl)c1)c1ccncc12 [CX4945] (first compound 0.04 µM, partner dose 0.4 µM) | 144% | 45.7% | 198% | 134% | 152% | 102% | 123% | 213% | 160% | 70.9% | 118% | 53.4% | 189% | 126% | 86.9% | 118% | 122% | 92.8% | 120%
2 | O=C(O)[C@@H]1[O][Sb](=[O])([O][Sb]2(=[O])[O][C@H]([C@H](O)CO)[C@H](O)[C@H](C(=O)O)[O]2)[O][C@H]([C@H](O)CO)[C@@H]1O (stereo partly specified) [stibogluconate] + Nc1ccn([C@@H]2O[C@H](CO)[C@@H](O)C2(F)F)c(=O)n1 [gemcitabine] (first compound 2 µM, partner dose 0.0004 µM) | 58.4% | 89% | 110% | 93.4% | 280% | 182% | 156% | 309% | 124% | 249% | 76.5% | 71% | 139% | 129% | 95.2% | 246% | 233% | 55.4% | 63.6%
3 | Nc1nc(F)nc2c1ncn2[C@@H]1O[C@H](CO)[C@@H](O)[C@@H]1O [fludarabine] + CC(=O)c1c(C)c2cnc(Nc3ccc(N4CCNCC4)cn3)nc2n(C2CCCC2)c1=O [palbociclib] (first compound 0.2 µM, partner dose 0.04 µM) | 15000% | 172% | 94.3% | 4320% | 104% | 53% | 113% | 96.6% | 184% | 74.1% | 75.7% | 80.7% | 111% | 276% | 108% | 76.6% | 73.8% | 261% | 190%
4 | Cc1cc(Nc2cc(N3CCN(C)CC3)nc(/C=C/c3ccccc3)n2)n[nH]1 + COc1ccc(Cl)c(Nc2nc3ccccc3nc2NS(=O)(=O)c2cccc(NC(=O)C(C)(C)N)c2)c1 [XL147] (first compound 0.04 µM, partner dose 0.8 µM) | 114% | 138% | 82.1% | 107% | 85.9% | 212% | 89.8% | 254% | 109% | 354% | 115% | 126% | 115% | 119% | 366% | 69.2% | 220% | 61.3% | 64.4%
5 | CN1CCN(c2ccc3nc(-c4c(N)c5c(F)cccc5[nH]c4=O)[nH]c3c2)CC1 [Dovitinib] + Nc1cccc2c1CN(C1CCC(=O)NC1=O)C2=O [lenalidomide] (first compound 0.1 µM, partner dose 1 µM) | 234% | 172% | 160% | 210% | 69.2% | 101% | 78.9% | 46% | 111% | 120% | 112% | 113% | 154% | 168% | 43.9% | 119% | 125% | 142% | 103%
6 | CS(=O)(=O)CCNCc1ccc(-c2ccc3ncnc(Nc4ccc(OCc5cccc(F)c5)c(Cl)c4)c3c2)o1 [lapatinib] + C=C(c1ccc(C(=O)O)cc1)c1cc2c(cc1C)C(C)(C)CCC2(C)C [Bexarotene] (first compound 0.8 µM, partner dose 2 µM) | 75.2% | 165% | 204% | 104% | 85.6% | 150% | 297% | 174% | 300% | 81% | 137% | 113% | 89.5% | 183% | 85.9% | 29.8% | 336% | 121% | 60.5%
7 | CNC(=O)c1cc(Oc2ccc(NC(=O)Nc3ccc(Cl)c(C(F)(F)F)c3)cc2)ccn1 [sorafenib] + CC(=O)c1c(C)c2cnc(Nc3ccc(N4CCNCC4)cn3)nc2n(C2CCCC2)c1=O [palbociclib] (first compound 0.4 µM, partner dose 0.04 µM) | 117% | 411% | 99.2% | 89.8% | 105% | 110% | 123% | 168% | 120% | 99.7% | 95.7% | 40.3% | 96.9% | 45.5% | 104% | 80% | 118% | 43.2% | 47.3%
8 | O=C(O)[C@@H]1[O][Sb](=[O])([O][Sb]2(=[O])[O][C@H]([C@H](O)CO)[C@H](O)[C@H](C(=O)O)[O]2)[O][C@H]([C@H](O)CO)[C@@H]1O (stereo partly specified) [stibogluconate] + Nc1nc(F)nc2c1ncn2[C@@H]1O[C@H](CO)[C@@H](O)[C@@H]1O [fludarabine] (first compound 2 µM, partner dose 0.2 µM) | 20200% | 133% | 59.8% | 3000% | 95.2% | 108% | 95.4% | 124% | 92.9% | 60% | 129% | 75.3% | 147% | 75.2% | 116% | 71.4% | 127% | 108% | 72.2%
9 | Cc1cc(Nc2cc(N3CCN(C)CC3)nc(/C=C/c3ccccc3)n2)n[nH]1 + C[C@]1(c2nc3c(C(N)=O)cccc3[nH]2)CCCN1 [Veliparib] (first compound 0.04 µM, partner dose 1.4 µM) | 74.2% | 303% | 108% | 136% | 77.1% | 47.9% | 86.4% | 97.8% | 101% | 356% | 58.3% | 50.9% | 125% | 59.6% | 40.6% | 132% | 216% | 98.5% | 48.5%
10 | C=C(c1ccc(C(=O)O)cc1)c1cc2c(cc1C)C(C)(C)CCC2(C)C [Bexarotene] + Nc1ccn([C@@H]2O[C@H](CO)[C@@H](O)C2(F)F)c(=O)n1 [gemcitabine] (first compound 2 µM, partner dose 0.0004 µM) | 84.1% | 81.8% | 80.6% | 155% | 119% | 280% | 109% | 230% | 141% | 39.9% | 95.8% | 61.1% | 102% | 163% | 62.4% | 166% | 227% | 82.6% | 161%
11 | CO[C@H]1C[C@@H]2CC[C@@H](C)[C@@](O)(O2)C(=O)C(=O)N2CCCC[C@H]2C(=O)O[C@H]([C@H](C)C[C@@H]2CC[C@@H](OCCO)[C@H](OC)C2)CC(=O)[C@H](C)/C=C(\C)[C@@H](O)[C@@H](OC)C(=O)[C@H](C)C[C@H](C)/C=C/C=C/C=C/1C [everolimus] + Cc1nc(Nc2ncc(C(=O)Nc3c(C)cccc3Cl)s2)cc(N2CCN(CCO)CC2)n1 [dasatanib] (first compound 0.02 µM, partner dose 0.004 µM) | 1260% | 188% | 216% | 537% | 85.5% | 83.7% | 94.6% | 131% | 145% | 81.6% | 175% | 101% | 183% | 226% | 76.7% | 169% | 413% | 55.7% | 150%
12 | CNC(=O)c1cc(Oc2ccc(NC(=O)Nc3ccc(Cl)c(C(F)(F)F)c3)cc2)ccn1 [sorafenib] + Cc1nc(Nc2ncc(C(=O)Nc3c(C)cccc3Cl)s2)cc(N2CCN(CCO)CC2)n1 [dasatanib] (first compound 0.4 µM, partner dose 0.004 µM) | 102% | 231% | 159% | 122% | 171% | 187% | 105% | 96.1% | 111% | 99.8% | 128% | 103% | 47.2% | 37.2% | 197% | 71.9% | 46.6% | 77.1% | 76.1%
13 | CO[C@H]1C[C@@H]2CC[C@@H](C)[C@@](O)(O2)C(=O)C(=O)N2CCCC[C@H]2C(=O)O[C@H]([C@H](C)C[C@@H]2CC[C@@H](OCCO)[C@H](OC)C2)CC(=O)[C@H](C)/C=C(\C)[C@@H](O)[C@@H](OC)C(=O)[C@H](C)C[C@H](C)/C=C/C=C/C=C/1C [everolimus] + CS(=O)(=O)CCNCc1ccc(-c2ccc3ncnc(Nc4ccc(OCc5cccc(F)c5)c(Cl)c4)c3c2)o1 [lapatinib] (first compound 0.02 µM, partner dose 0.8 µM) | 296% | 33.3% | 338% | 701% | 75.5% | 259% | 98.2% | 102% | 110% | 98.2% | 137% | 201% | 171% | 182% | 333% | 305% | 140% | 156% | 287%
14 | Cn1c(=O)n(-c2ccc(C(C)(C)C#N)cc2)c2c3cc(-c4cnc5ccccc5c4)ccc3ncc21 + CC(=O)c1c(C)c2cnc(Nc3ccc(N4CCNCC4)cn3)nc2n(C2CCCC2)c1=O [palbociclib] (first compound 0.004 µM, partner dose 0.04 µM) | 148% | 134% | 67% | 453% | 105% | 97.8% | 117% | 134% | 137% | 136% | 144% | 89.5% | 168% | 84.1% | 104% | 98.5% | 150% | 142% | 59.8%

Some values from the results shown.
For cleaved PARP positive nuclei fraction (LOXIMVI), CN1CCN(c2ccc3nc(-c4c(N)c5c(F)cccc5[nH]c4=O)[nH]c3c2)CC1 [Dovitinib] + Nc1cccc2c1CN(C1CCC(=O)NC1=O)C2=O [lenalidomide] (first compound 0.1 µM, partner dose 1 µM) reads 142%
For cleaved PARP positive nuclei fraction (A101D), CO[C@H]1C[C@@H]2CC[C@@H](C)[C@@](O)(O2)C(=O)C(=O)N2CCCC[C@H]2C(=O)O[C@H]([C@H](C)C[C@@H]2CC[C@@H](OCCO)[C@H](OC)C2)CC(=O)[C@H](C)/C=C(\C)[C@@H](O)[C@@H](OC)C(=O)[C@H](C)C[C@H](C)/C=C/C=C/C=C/1C [everolimus] + CS(=O)(=O)CCNCc1ccc(-c2ccc3ncnc(Nc4ccc(OCc5cccc(F)c5)c(Cl)c4)c3c2)o1 [lapatinib] (first compound 0.02 µM, partner dose 0.8 µM) reads 33.3%
